According to publication PMC6213497:
Residue numbers refer to the chain shown, from its start. Results are given in words; binding and its absence hold for the method and conditions named. In cells and extracts the contact can be indirect. Some results given as binding are weak or reduced against the parent protein; the word gives no strength. Where a sequence is shown, tags or fusion partners need not be part of it.

Protein sequences, listed by entry. Tags and fused reporters are not part of them. Residues count along the entry.
UniProt Q15465, residues 24-462: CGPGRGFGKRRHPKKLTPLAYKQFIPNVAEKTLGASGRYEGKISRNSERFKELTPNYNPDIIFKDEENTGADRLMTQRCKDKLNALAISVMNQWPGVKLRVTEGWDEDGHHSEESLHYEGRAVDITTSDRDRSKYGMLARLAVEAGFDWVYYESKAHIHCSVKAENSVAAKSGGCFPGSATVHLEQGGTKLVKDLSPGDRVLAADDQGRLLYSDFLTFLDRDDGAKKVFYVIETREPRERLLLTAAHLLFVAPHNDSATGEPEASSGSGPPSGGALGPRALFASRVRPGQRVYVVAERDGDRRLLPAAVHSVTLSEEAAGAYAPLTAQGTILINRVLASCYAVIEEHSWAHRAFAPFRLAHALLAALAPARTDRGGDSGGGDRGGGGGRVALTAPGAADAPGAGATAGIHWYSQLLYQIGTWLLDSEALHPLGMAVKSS

Tests used:
[1] = molecular target: T1, FLAG-HHIP wild-type (Hedgehog interacting protein) (human) (UniProt Q96QV1); test: co-IP; 8505C cells co-transfected with SHH-HA and FLAG-HHIP-WT or FLAG-HHIP-G516R for 24 h; cleared cell extracts incubated with anti-FLAG antibody 12 h at 4 °C, protein A/G PLUS-Agarose overnight, washed three times with PBS; HA detected by western blot
T1 sequence: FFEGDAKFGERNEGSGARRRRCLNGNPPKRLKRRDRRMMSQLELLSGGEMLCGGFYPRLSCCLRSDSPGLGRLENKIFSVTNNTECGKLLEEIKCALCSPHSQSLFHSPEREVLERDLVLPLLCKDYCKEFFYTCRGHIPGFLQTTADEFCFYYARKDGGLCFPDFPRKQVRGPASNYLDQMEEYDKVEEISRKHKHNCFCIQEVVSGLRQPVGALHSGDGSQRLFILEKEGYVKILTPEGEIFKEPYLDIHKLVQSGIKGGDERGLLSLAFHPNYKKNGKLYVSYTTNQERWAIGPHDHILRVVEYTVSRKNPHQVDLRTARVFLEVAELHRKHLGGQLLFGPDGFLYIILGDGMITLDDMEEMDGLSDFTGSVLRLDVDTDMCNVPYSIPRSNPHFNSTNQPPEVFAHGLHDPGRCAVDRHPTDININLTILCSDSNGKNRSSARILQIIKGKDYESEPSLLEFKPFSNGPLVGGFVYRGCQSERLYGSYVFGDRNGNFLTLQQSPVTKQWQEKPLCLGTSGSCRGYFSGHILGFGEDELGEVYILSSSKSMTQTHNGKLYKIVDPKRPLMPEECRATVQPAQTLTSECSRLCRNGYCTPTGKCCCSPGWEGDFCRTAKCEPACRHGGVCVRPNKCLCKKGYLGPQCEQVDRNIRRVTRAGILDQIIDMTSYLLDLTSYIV

[2] = molecular target: T2, FLAG-HHIP-G516R mutant (human) (UniProt Q96QV1); test: as above
T2 sequence: T1 sequence with G499R

With “SHH-HA (Sonic Hedgehog) (from UniProt Q15465 24-462) (ligand)” the binding [1] was “binds” and the binding [2] was “binds”.
